# Literature values in patent EP0321100A2, “Piperazine derivatives, their acid addition salts and a process for the preparation of same” (SPOFA spojené podniky pro zdravotnickou vyrobu, priority 1987, dated 1989).
# For at least one compound, name, drawing or mass did not settle the structure.
# Assays:
# catalepsy in rats = conditions: stated as known for clozapine; cited from earlier work
# apomorphine stereotypies = conditions: stated as known for clozapine; cited from earlier work
smiles,measurement,setting,value
CN1CCN(C2=Nc3cc(Cl)ccc3Nc3ccccc32)CC1 [clozapine],catalepsy in rats,catalepsy in rats,known also to apply
same,inhibition of apomorphine stereotypies,apomorphine stereotypies,known also to apply
